## Percent effect of library compounds

The values are deposited in ChEMBL (CHEMBL3988442, “University of Dundee, Small-Polar-MMV Screening Library” (2021)).

T. brucei: 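Whole-parasite assay of Trypanosoma brucei over 72 hours; the read-out is not stated. Tested at 30 µM. Higher reads as stronger inhibition (inferred: compounds with an IC50 in retests scored well above the rest). Values scatter widely below zero; nearly all retest evidence comes from the higher of the two concentrations used. Of about 64,000 compounds tested this way, about 940 (1.5%) reached 50% or more in at least one test.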
Leishmania in macrophages: 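Cell assay of Leishmania donovani living inside macrophages; the read-out is not stated. Compounds at 30 µM. Direction is inferred from retests: higher values go with stronger inhibition. About 69,000 compounds were tested under these conditions; 1.5% (about 1,000) showed 50% or more at least once.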
Toxoplasma: 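Assay of Toxoplasma gondii numbers, read through their beta-galactosidase reporter with a colour substrate. Concentration: 10 µM. Higher reads as fewer parasites (inferred from which compounds were picked for retests). Of about 67,000 compounds tested this way, about 260 (0.38%) reached 50% or more in at least one test.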

Values are the deposited “Percent Effect”, in %.
How 0% and 100% were set is not recorded. Most values in the screen are low, and negative values occur.
This is an unselected part of the compounds tested.
Two or more numbers in one place are separate tests of the same structure; such repeats can differ widely.
A dash means the value is not listed here; it may have been measured.

| Compound | T. brucei | Leishmania in macrophages | Toxoplasma |
|---|---|---|---|
| `Cc1noc(C(C)N2CCN(Cc3noc(C4CC4)n3)CC2)n1` (stereo not drawn) | -27.2 | -1.683 | -6.536 |
| `COc1ccc(S(=O)(=O)NCCC(O)c2ccoc2)c(C)c1` (stereo not drawn) | 7.547 | -9.279 and 10.58 | -15.44 |
| `Cc1cc(SCC(N)=O)nc(-c2ccc(F)cc2)n1` | 1.033 | 20.75 | 14.74 |
| `Cc1ccnc2c1NC(=O)CN2C(=O)CCc1ccccc1` | -7.98 | -2.948 | 6.845 |
| `CCOc1ncccc1NC(=O)c1sccc1C` | 16.08 | 0.7805 | -1.279 |
| `O=C(c1ccnnc1)N1CC2(CCN(c3ncccn3)C2)C1` | -31.21 | 7.82 | -7.83 |
| `CN(CCCc1cnn(C)c1)C(=O)C1CCN(C(=O)C2CCC2)CC1` | -6.632 | -27.62 | -1.959 |
| `CC(C(=O)N1CCC(c2[nH]ncc2-c2ccccc2)CC1)n1cncn1` (stereo not drawn) | -9.24 | 12.1 | -5.348 |
| `COC(C)(CNS(=O)(=O)c1cnn(C)c1)c1ccccc1F` (stereo not drawn) | -2.053 | -13.19 | 1.1 |
| `COc1ccc2c(c1)C1(CCN(Cc3cnn(C)c3)CC1)N(C)CC2.O=C(O)C(F)(F)F` | -95.03 | 16.32 | 16.17 |
| `COCc1nc(C(=O)NS(=O)(=O)c2ccc(C)s2)cs1` | -16.15 | 0.792 | -16.02 |
| `CCN(C)c1ccc(CNS(=O)(=O)C2CCOCC2)cc1F` | 14.95 | -4.111 | 1.399 |
| `O=C(NCCNC(=O)C1Cc2cc(F)ccc2O1)C1CCCCC1` (stereo not drawn) | 6.622 | -8.63 | 2.426 |
| `CCN(CC)CCNC(=O)c1cc(C(C)C)nc(N2CCCC2)n1` | -3.491 | -12.46 | 2.51 |
| `CN(C)C(=O)c1cnc2n1CCN(Cc1cccnc1)C2.O=C(O)C(F)(F)F.O=C(O)C(F)(F)F` | -389.6 | 23.28 | -9.208 |
| `COC1COC2(CCN(C(=O)c3cnc(C)cn3)CC2)C1` (stereo not drawn) | 1.202 | -5.816 | 0 |
| `Cc1nnc(NCCC(=O)NCc2ccccc2)c(C#N)c1C` | 4.016 | -9.313 | 5.227 |
| `O=C1CC2(CCN(c3nncs3)C2)CN1c1cncnc1` (stereo not drawn) | -49.34 | -4.701 | 12.63 |
| `CCn1c(C)nnc1SCCNc1nc(C)nc2c1cnn2C` | - | -4.179 | -10.81 |
| `Cc1nn(C)cc1-c1ccnc(N2CCCN(CC(C)C)CC2)n1` | -16.68 | 38.78 | 14.07 |
| `CN(CC1(O)CCCN(c2ccccn2)C1)C(=O)CCc1cccs1` (stereo not drawn) | 19.98 | 16.66 | -24.25 |
| `Cc1nc(C)c(C(=O)NCCOc2ccc(C(F)(F)F)cn2)o1` | -19.71 | 0.7372 | -5.347 |
| `O=C(NC1(c2nnn(CC3CC3)n2)CCCC1)c1ccccc1` | -16.7 | 14.33 | - |
| `CC1CCN(CC2(O)CCCN(Cc3cccc(F)c3F)C2=O)CC1` (stereo not drawn) | -25.13 | -5.559 | 3.406 |
| `CC(NCC1(N(C)C)CCOCC1)c1ccc(S(C)(=O)=O)cc1` (stereo not drawn) | -15.63 | 7.06 | 1.013 |
| `CSc1ncccc1C(=O)N1CCC2(CC1)c1nc[nH]c1CCN2C` | -67.25 | 8.658 | -12.92 |
| `Cc1cc(C(=O)NCc2ccc(N3CCCC(C(N)=O)C3)cc2)no1` (stereo not drawn) | -13.34 | 14.06 | 0.3501 |
| `CN(C)C(=O)CN(C)C(=O)c1cnc(Cc2ccc(F)cc2)s1` | -8.573 | -0.3968 | -13.44 |
| `CN(CCc1ccccc1)Cc1nc(Cc2cccc(F)c2)no1` | 1.499 | -40.71 | 17.08 |
| `O=C(CSc1nnc(N2CCOCC2)s1)NC(=O)Nc1ccccc1` | -20.61 | 19.76 | 25.21 |
| `c1cnn(CC2CN(c3ncnc4c3CCC4)CCO2)c1` (stereo not drawn) | -9.961 | 22.72 | -0.3567 |
| `Cc1c(S(=O)(=O)N2CCCC2c2nnc(-c3ccsc3)o2)cnn1C` (stereo not drawn) | 0.5055 | 12.35 | -13.28 |
| `O=C(Nc1ccc2c(c1)OCCO2)N1CCCN(Cc2cccs2)CC1` | 3.816 | 22.98 | -47.16 |
| `O=C(NCCc1ccccc1)N1CCCCC1C1OCCO1` (stereo not drawn) | -6.453 | 3.949 | 5.036 |
| `CCN1CCN(C[C@@H]2CN(c3ncccc3C(F)(F)F)C[C@@H]2CO)CC1` | 0.1029 | 29.04 | 7.962 |
| `CCOC(CC)C(=O)NCc1cccc(N2CCCCC2=O)c1` (stereo not drawn) | 16.76 | 1.081 | -1.274 |
| `Cn1cc(N2CCC3(CCN(Cc4nccs4)C3)C2=O)cn1.O=C(O)C(F)(F)F` (stereo not drawn) | - | 14.7 | -1.883 |
| `CC(Cc1cccs1)NC(=O)CCn1cccn1` (stereo not drawn) | 10.82 | 8.283 | -19.3 |
| `Cc1ccc(OCCC(=O)N(C)CC(=O)Nc2cc(C)on2)c(C)c1` | -16.33 | -18.76 | -0.6775 |
| `CCCC(=O)N1CCC2(CC1)CN(Cc1cccc(C)n1)C(=O)CO2` | -33.76 | 12.34 | 32.23 |
| `O=C(O)c1cncc(Cc2ccccc2F)c1` | - | 19.2 | 2.972 |
| `Cc1ccc(CN(C)C(=O)NCC(C)(C)CCS(C)(=O)=O)s1` | 4.162 | 20 | 10.3 |
| `O=C(O)C(F)(F)F.O=C(O)C(F)(F)F.[H][C@@]12CN(Cc3cnn(C)c3)C[C@@]1([H])N(Cc1cccc(C)c1)C(=O)CO2` | -0.09897 | 15.94 | -16.59 |
| `CCc1noc(C)c1C(=O)N1CCCC1c1c(C)nn(C)c1C` (stereo not drawn) | - | 14.89 | 3.824 |
| `CCCOCCN1CCC2(CC1)CC(c1ccccc1)C(=O)N2C` (stereo not drawn) | -20.44 | 0.2645 | -1.432 |
| `N#CCCN1CC(O)CN(C(=O)c2cccc(C(F)(F)F)c2)CC1=O` (stereo not drawn) | 8.789 | 9.969 | -36.92 |
| `NC1(c2nc(-c3ccccc3)cc(=O)[nH]2)CCCCC1` | -7.105 | 18.41 | 4.176 |
| `Cc1nnsc1C(=O)NCC1CCN(c2ccccn2)CC1` | -2.277 | 51.71 | -23.03 |
| `[H][C@@]12CCN(Cc3cc(C)on3)C[C@@]1([H])O[C@H](c1nc(C)cs1)C2` | -95.35 | 36.83 | -22.65 |
| `OCCN1CCC(CNCc2ccccc2OC(F)(F)F)CC1` | - | 13.65 | -9.154 |
| `O=C(NCc1ccco1)c1nn(C2CCS(=O)(=O)C2)c2c1CCCC2` (stereo not drawn) | 15.74 | -11.24 | 2.162 |

The last 4 entries again:

* Cc1nnsc1C(=O)NCC1CCN(c2ccccn2)CC1 : T. brucei: -2.277%; Leishmania in macrophages: 51.71%; Toxoplasma: -23.03%
* [H][C@@]12CCN(Cc3cc(C)on3)C[C@@]1([H])O[C@H](c1nc(C)cs1)C2 : T. brucei: -95.35%; Leishmania in macrophages: 36.83%; Toxoplasma: -22.65%
* OCCN1CCC(CNCc2ccccc2OC(F)(F)F)CC1 : Leishmania in macrophages: 13.65%; Toxoplasma: -9.154%
* O=C(NCc1ccco1)c1nn(C2CCS(=O)(=O)C2)c2c1CCCC2 (stereo not drawn) : T. brucei: 15.74%; Leishmania in macrophages: -11.24%; Toxoplasma: 2.162%